Measurements reported in PMC2994906 (PLoS ONE, 2010).
Results are given in words; binding and its absence hold for the method and conditions named. Some results given as binding are weak or reduced against the parent protein; the word gives no strength. No end group written: not given here.

How the values were obtained:
[1] = target: T1, TAMRA-labeled SRC-1 NR2 peptide (686-RHKILHRLLQEGS-698) (also: TAMRA label, position not given here); assay: fluorescence polarisation; fluorescence anisotropy; hRARα/mRXRα LBDs added to a fixed concentration of TAMRA-SRC-1 NR2 peptide; 20°C; 10 mM TRIS-HCl pH 7.5, 150 mM NaCl, 10 mM DTT; heterodimer bound to HX531; both purified
T1 construct: also called (TAMRA) – SRC-1 NR2 peptide; source: bought: Neosystem (Strasbourg, France)
T1 peptide: RHKILHRLLQEGS

[2] = target: hRARα/mRXRα LBD heterodimer (human | mouse) (UniProt P10276+P28700); assay: SAXS; RARα-atRA/RXRα-LG100754 LBDs in solution, at least three protein concentrations from 2 to 5 mg/ml; Rg and Dmax compared with dimeric and tetrameric models; both purified

B1: hRARα/mRXRα LBD heterodimer (complex, human | mouse)
chain 1: MSKESVRNDRNKKKKEVPKPECSESYTLTPEVGELIEKVRKAHQETFPALCQLGKYTTNNSSEQRVSLDIDLWDKFSELSTKCIIKTVEFAKQLPGFTTLTIADQITLLKAACLDILILRICTRYTPEQDTMTFSDGLTLNRTQMHNAGFGPLTDLVFAFANQLLPLEMDDAETGLLSAICLICGDRQDLEQPDRVDMLQEPLLEALKVYVRKRRPSRPHMFPKMLMKITDLRSISAKGAERVITLKMEIPGSMPPLIQEMLENSEGLD
chain 2: TSSANEDMPVEKILEAELAVEPKTETYVEANMGLNPSSPNDPVTNICQAADKQLFTLVEWAKRIPHFSELPLDDQVILLRAGWNELLIASFSHRSIAVKDGILLATGLHVHRNSAHSAGVGAIFDRVLTELVSKMRDMQMDKTELGCLRAIVLFNPDSKGLSNPAEVEALREKVYASLEAYCKHKYPEQPGRFAKLLLRLPALRSIGLKCLEHLFFFKLIGDTPIDTFLMEMLEAPHQAT
notes: Heterodimer formed beforehand; small-molecule ligands (atRA, LG100754, AM580, BMS614, BMS649, 9-cisRA, HX531) differ between experiments and are named in the assays; also called RARα/RXRα LBD; RAR/RXR; not shown: His6, N-terminal, kept; copies: 1 + 1
For B1, the binding [1] was “binds” and the binding [2] was “no binding (tested: 2 to 5 mg/ml)”.
